Test results: article PMC9045647
No constants are given. Whether binding was seen depends on the method and setting. Binding seen in cells or lysates may run through a third protein. Some entries that bind do so weakly or less than the wild type. Where a sequence is shown, tags or fusion partners need not be part of it.

Chains of the proteins cited; added tags and fusions are not shown.
UniProt O53166: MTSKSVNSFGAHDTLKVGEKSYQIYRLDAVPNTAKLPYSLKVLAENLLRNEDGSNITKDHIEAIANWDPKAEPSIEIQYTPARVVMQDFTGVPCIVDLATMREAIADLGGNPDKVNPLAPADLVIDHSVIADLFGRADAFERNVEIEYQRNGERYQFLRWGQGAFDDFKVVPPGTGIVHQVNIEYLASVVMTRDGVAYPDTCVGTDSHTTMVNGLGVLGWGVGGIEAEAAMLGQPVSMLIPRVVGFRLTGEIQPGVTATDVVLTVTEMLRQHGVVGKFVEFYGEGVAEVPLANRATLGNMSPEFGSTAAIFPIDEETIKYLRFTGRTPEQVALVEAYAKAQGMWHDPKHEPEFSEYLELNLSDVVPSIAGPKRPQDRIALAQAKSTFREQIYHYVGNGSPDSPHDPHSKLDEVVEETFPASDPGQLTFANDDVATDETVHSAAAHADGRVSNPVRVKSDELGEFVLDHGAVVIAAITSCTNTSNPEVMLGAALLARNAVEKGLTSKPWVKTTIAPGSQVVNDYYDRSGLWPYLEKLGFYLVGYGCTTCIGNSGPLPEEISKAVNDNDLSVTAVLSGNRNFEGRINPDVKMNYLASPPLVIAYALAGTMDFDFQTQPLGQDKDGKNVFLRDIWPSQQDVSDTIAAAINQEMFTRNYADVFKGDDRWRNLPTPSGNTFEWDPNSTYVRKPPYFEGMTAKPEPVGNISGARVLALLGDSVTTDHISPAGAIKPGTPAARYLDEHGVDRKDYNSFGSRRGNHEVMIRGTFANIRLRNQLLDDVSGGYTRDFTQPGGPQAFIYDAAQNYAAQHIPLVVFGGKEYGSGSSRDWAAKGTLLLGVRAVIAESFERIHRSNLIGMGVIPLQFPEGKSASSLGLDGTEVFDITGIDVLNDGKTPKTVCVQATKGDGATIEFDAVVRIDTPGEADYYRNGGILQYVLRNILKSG

Molecular target: T1, SufT (Rv1466), endogenous in Mtb (Mycobacterium tuberculosis (endogenous in Mtb H37Rv-derived strains)) (UniProt O53157)
T1 sequence: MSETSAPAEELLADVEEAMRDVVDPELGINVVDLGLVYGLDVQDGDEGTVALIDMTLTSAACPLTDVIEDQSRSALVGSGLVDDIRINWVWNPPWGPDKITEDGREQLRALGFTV
Assay: co-IP

aconitase (Acn), endogenous in Mtb (from UniProt O53166 1-943) (enzyme)
binding: binds
